Data from the supplement of paper PMC10849652.
The list shows a part of the results. Residues, ends and D or L forms follow the SMILES beside them. *: point of attachment. Cbz = O=C(OCc1ccccc1)*

The chains behind the UniProt entries cited, without tags or fusion partners. Where a name states a change or a piece, a line headed by the entry shows the natural chain unless it says otherwise.
UniProt Q9H633: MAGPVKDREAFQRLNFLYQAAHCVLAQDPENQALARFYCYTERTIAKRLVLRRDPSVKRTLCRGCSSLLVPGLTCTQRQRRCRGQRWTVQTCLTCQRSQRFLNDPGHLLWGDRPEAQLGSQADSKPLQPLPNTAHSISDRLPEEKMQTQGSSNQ
UniProt Q99942: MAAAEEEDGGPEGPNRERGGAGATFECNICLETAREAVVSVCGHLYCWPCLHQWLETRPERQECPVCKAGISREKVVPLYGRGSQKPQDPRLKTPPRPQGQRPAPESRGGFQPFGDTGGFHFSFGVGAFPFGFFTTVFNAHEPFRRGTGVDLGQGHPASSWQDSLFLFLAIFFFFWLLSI
UniProt P23443: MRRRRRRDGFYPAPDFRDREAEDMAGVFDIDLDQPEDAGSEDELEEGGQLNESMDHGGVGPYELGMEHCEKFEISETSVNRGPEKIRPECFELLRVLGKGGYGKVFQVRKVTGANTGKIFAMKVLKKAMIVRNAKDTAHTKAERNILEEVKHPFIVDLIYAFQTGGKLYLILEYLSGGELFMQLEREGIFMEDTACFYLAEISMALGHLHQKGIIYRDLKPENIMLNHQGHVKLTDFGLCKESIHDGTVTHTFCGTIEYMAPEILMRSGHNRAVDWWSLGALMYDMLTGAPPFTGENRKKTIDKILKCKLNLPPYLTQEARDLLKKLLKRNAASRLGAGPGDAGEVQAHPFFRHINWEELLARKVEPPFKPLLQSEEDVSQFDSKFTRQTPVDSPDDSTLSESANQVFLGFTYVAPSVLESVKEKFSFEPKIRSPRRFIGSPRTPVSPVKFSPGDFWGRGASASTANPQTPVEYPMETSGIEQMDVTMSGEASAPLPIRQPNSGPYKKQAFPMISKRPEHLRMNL
UniProt O75116: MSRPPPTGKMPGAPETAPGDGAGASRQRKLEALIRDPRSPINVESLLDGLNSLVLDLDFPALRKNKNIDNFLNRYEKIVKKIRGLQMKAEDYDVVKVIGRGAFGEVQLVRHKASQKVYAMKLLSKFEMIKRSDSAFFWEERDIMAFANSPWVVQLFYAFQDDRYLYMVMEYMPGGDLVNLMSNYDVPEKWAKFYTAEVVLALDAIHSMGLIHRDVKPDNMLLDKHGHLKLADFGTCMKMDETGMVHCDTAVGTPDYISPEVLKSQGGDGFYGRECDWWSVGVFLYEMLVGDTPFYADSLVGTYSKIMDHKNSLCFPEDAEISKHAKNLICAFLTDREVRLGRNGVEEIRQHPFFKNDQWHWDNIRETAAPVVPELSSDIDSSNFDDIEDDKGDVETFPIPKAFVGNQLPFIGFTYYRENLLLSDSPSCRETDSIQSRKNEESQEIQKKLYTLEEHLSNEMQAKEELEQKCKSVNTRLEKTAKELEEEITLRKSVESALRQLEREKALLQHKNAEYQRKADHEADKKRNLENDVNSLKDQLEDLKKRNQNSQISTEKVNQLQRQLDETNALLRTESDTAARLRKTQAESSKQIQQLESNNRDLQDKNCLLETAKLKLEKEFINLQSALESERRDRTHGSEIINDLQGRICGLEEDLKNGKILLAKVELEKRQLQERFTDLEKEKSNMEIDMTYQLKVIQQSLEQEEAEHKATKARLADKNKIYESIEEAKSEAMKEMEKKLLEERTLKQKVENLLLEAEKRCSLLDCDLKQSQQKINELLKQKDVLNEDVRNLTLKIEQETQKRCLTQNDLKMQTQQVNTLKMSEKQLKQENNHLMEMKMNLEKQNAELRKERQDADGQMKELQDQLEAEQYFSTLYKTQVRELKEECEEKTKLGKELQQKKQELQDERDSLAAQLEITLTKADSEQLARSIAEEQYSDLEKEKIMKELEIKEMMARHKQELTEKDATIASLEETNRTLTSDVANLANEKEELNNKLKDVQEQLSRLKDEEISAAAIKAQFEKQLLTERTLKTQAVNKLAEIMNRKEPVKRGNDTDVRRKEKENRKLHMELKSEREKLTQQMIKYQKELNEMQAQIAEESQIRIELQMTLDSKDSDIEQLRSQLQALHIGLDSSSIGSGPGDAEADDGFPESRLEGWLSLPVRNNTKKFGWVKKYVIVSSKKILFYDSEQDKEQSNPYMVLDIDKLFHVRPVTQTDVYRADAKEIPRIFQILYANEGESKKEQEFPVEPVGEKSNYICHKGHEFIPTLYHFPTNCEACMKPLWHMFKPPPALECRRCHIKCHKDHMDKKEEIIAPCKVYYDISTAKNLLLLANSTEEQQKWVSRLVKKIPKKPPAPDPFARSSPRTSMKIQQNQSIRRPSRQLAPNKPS
UniProt Q8TA86: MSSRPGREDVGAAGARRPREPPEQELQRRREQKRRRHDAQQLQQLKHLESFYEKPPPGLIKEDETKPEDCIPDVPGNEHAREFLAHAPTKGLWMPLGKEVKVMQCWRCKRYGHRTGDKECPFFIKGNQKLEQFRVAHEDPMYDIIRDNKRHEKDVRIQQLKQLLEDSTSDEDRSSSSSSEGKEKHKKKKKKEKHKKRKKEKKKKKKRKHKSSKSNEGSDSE
UniProt Q9P2E9: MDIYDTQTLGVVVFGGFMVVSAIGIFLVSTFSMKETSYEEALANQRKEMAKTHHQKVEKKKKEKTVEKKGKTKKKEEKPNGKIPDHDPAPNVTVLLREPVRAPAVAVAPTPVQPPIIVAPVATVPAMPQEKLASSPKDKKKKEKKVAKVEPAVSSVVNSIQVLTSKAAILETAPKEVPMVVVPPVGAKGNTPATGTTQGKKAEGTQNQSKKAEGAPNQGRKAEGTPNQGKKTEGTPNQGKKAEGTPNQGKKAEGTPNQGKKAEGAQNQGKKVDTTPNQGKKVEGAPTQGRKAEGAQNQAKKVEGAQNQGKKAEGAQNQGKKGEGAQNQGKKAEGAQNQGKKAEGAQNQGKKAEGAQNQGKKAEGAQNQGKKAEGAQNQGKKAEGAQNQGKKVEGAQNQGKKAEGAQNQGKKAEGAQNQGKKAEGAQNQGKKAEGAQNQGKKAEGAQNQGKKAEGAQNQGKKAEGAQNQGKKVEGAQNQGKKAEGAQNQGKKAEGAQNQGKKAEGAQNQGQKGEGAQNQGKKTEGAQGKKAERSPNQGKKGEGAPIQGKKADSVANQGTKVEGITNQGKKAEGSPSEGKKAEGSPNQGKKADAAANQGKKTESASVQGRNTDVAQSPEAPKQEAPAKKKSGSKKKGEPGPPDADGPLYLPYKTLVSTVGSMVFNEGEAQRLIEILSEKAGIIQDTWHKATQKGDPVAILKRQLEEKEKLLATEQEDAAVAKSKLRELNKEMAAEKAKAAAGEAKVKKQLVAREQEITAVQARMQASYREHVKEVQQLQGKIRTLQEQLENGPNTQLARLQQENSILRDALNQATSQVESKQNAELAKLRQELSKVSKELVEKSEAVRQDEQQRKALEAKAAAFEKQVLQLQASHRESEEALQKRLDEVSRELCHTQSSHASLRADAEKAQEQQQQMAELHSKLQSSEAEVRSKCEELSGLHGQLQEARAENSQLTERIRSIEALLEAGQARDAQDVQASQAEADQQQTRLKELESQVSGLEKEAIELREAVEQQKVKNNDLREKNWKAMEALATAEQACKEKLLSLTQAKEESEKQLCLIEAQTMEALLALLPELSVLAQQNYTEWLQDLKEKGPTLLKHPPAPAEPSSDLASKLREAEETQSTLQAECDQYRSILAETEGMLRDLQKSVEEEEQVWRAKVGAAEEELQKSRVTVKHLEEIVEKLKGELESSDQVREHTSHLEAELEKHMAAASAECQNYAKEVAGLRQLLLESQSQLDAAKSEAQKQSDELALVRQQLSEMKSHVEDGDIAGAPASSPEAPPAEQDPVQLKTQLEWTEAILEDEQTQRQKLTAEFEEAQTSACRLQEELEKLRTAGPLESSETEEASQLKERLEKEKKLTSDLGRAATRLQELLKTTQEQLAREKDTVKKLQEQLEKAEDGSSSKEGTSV
UniProt Q96S38: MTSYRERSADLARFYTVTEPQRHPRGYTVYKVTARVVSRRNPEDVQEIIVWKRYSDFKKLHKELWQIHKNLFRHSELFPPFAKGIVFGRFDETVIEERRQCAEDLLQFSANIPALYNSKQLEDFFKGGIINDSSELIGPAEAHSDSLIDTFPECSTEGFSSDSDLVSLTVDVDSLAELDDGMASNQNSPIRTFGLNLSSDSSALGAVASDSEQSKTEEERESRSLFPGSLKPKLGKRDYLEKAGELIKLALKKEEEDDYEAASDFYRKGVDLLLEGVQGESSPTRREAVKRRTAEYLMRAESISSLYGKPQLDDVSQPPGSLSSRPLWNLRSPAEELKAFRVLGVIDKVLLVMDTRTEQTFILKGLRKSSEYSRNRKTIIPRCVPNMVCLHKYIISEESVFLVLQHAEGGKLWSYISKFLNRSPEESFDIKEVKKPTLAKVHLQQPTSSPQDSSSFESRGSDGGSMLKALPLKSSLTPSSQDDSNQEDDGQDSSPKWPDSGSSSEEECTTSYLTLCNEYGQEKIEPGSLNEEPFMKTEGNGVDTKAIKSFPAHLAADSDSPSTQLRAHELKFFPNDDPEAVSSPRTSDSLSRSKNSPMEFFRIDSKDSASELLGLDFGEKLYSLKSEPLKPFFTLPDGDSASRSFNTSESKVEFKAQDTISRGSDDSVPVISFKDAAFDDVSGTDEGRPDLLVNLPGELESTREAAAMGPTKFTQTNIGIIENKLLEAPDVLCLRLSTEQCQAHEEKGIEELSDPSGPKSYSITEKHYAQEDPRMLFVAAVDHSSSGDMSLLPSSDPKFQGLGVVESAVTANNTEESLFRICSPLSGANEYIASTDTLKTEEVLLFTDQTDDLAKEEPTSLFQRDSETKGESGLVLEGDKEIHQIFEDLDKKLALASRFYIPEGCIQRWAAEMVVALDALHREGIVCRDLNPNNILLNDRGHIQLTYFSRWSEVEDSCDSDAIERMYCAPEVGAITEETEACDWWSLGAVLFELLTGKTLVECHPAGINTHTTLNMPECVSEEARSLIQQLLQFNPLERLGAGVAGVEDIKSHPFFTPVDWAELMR
UniProt Q9H6T3, whole entry, looked up: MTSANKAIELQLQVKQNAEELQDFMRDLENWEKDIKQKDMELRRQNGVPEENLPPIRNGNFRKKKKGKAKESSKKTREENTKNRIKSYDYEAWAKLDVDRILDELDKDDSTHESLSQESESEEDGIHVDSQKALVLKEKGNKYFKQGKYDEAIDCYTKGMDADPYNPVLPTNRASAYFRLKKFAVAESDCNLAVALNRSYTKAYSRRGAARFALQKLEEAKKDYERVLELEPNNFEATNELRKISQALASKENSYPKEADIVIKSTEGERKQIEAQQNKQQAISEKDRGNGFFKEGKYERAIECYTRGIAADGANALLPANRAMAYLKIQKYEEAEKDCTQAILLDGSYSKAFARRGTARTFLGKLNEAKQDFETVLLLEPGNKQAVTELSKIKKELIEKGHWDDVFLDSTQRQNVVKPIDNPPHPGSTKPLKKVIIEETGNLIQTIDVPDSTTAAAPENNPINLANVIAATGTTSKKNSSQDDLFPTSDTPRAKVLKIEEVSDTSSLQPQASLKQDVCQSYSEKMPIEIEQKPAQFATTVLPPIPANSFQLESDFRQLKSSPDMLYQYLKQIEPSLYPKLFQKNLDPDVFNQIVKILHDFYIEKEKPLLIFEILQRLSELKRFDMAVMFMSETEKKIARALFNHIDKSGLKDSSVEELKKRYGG
UniProt P78345: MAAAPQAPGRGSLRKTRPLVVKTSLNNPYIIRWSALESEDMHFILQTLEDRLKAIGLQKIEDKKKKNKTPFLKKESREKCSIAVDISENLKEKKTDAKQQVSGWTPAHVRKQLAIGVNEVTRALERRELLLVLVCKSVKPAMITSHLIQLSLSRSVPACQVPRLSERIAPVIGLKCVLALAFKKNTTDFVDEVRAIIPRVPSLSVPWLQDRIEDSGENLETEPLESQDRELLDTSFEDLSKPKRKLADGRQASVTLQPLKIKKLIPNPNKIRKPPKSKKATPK

Key:
Experiment in all cases: log2 fold change, soluble protein after heating vs DMSO (PISA); higher = thermal stabilisation; K562 cells, 10 uM, 30 min; active = over 0.2 and 3.5 SD of the protein, either way, in both replicates (recomputed)
IRAK-1-4 Inhibitor I = compound: C1COCCN1CCN2C3=CC=CC=C3N=C2NC(=O)C4=CC(=CC=C4)[N+](=O)[O-] [IRAK-1-4 Inhibitor I]
In short: (§1)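 K562 cells at 2×10^6 cells/mL were given 10 μM compound for 30 min. Aliquots then went through 3 min of heating across 48°C-58°C, were pooled, and were extracted in PBS with 0.5% NP-40 at 4°C, and the supernatant after 21,000xg for 90 min was quantified by TMTpro 16plex LC-MS/MS with channel sums equalised. Thermal stability relative to control samples, from duplicates, is given as log2 fold change.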

ibrutinib = compound: C=CC(=O)N1CCC[C@@H](n2nc(-c3ccc(Oc4ccccc4)cc3)c3c(N)ncnc32)C1 [ibrutinib]
In short: as §1

[1] = compound: CC(=O)c1cnc2ccc(-c3cc(Cl)c(O)c(Cl)c3)nc2c1N[C@H]1CC[C@H](CN(C)C)CC1
In short: as §1

ralimetinib = compound: CC(C)(C)Cn1c(N)nc2ccc(-c3[nH]c(C(C)(C)C)nc3-c3ccc(F)cc3)nc21 [ralimetinib]
In short: as §1

[2] = compound: CC(C)(O)CC(=O)NCCn1ccc2ncnc(Nc3ccc(Oc4cccc(C(F)(F)F)c4)c(Cl)c3)c21
In short: as §1

[3] = compound: CC(C)C1=C2N=C(C=C(N2N=C1)NCC3=CC=CC=C3)NCCCCCCN
In short: as §1

[4] = compound: CC(C)C[C@@H](C=O)NC(=O)[C@H](CC(C)C)NC(=O)[C@H](CC(C)C)NC(=O)OCc1ccccc1
In short: as §1

pinometostat = compound: CC(C)N(C[C@H]1O[C@@H](n2cnc3c(N)ncnc32)[C@H](O)[C@@H]1O)[C@H]1C[C@@H](CCc2nc3cc(C(C)(C)C)ccc3[nH]2)C1 [pinometostat]
In short: as §1

[5] = compound: CC1=C(C(CC(=O)N1)C2=CC=C(C=C2)C(F)(F)F)C(=O)NC3=C(C=C4C(=C3)C=NN4)F
In short: as §1

[6] = compound: CC1=C(C2=C(C=C1)C(=O)C3=CC=CC=C3N2CCCN)C
In short: as §1

Measured: log2 fold change

RPP21 isoform 4 (UniProt Q9H633)
inactive: IRAK-1-4 Inhibitor I 0.027 | ibrutinib -0.017 | [1] 0.002 | ralimetinib 0.015 | [2] -0.074 | [3] -0.024 | [4] 0.075 | pinometostat 0.207 | [5] 0.03 | [6] -0.163

RNF5 (UniProt Q99942)
inactive: IRAK-1-4 Inhibitor I 0.054 | ibrutinib -0.018 | [1] 0 | ralimetinib 0.27 | [2] -0.032 | [3] -0.221 | [4] -0.078 | pinometostat -0.05 | [5] 0.012 | [6] 0.034

RPL14 (UniProt P50914)
inactive: IRAK-1-4 Inhibitor I -0.19 | ibrutinib 0.072 | [1] 0.232 | ralimetinib 0.265 | [2] 0.055 | [3] -0.079 | [4] 0.199 | pinometostat 0.468 | [5] 0.129 | [6] -1.04

RPS6KB1 (UniProt P23443)
inactive: IRAK-1-4 Inhibitor I 0.073 | ibrutinib -0.005 | [1] 0.107 | ralimetinib -0.032 | [2] -0.064 | [3] -0.051 | [4] 0.091 | pinometostat 0.028 | [5] 0.054 | [6] 0.024

ROCK2 (UniProt O75116)
inactive: IRAK-1-4 Inhibitor I -0.037 | ibrutinib -0.052 | [1] -0.137 | ralimetinib 0.032 | [2] -0.049 | [3] -0.138 | [4] 0.034 | pinometostat 0.021 | [6] 0
active: [5] 0.29

RPL23A (UniProt P62750)
inactive: IRAK-1-4 Inhibitor I -0.14 | ibrutinib 0.061 | [1] 0.175 | ralimetinib 0.191 | [2] 0.006 | [3] -0.01 | [4] 0.05 | pinometostat 0.303 | [5] 0.031 | [6] -0.683

RPL37A (UniProt P61513)
inactive: IRAK-1-4 Inhibitor I -0.313 | ibrutinib 0.175 | [1] 0.294 | ralimetinib 0.309 | [2] 0.026 | [3] 0.032 | [4] 0.214 | pinometostat 0.381 | [5] 0.15 | [6] -0.955

RP9 (UniProt Q8TA86)
inactive: IRAK-1-4 Inhibitor I -0.075 | ibrutinib 0.087 | [1] 0.039 | ralimetinib 0.076 | [2] 0.073 | [3] -0.212 | [4] 0.161 | pinometostat 0.162 | [5] -0.011 | [6] -0.068

Two consecutive records already listed:
RPL23A (UniProt P62750)
inactive: IRAK-1-4 Inhibitor I -0.14 | ibrutinib 0.061 | [1] 0.175 | ralimetinib 0.191 | [2] 0.006 | [3] -0.01 | [4] 0.05 | pinometostat 0.303 | [5] 0.031 | [6] -0.683

RPL37A (UniProt P61513)
inactive: IRAK-1-4 Inhibitor I -0.313 | ibrutinib 0.175 | [1] 0.294 | ralimetinib 0.309 | [2] 0.026 | [3] 0.032 | [4] 0.214 | pinometostat 0.381 | [5] 0.15 | [6] -0.955

(cont.)

RPL27 (UniProt P61353)
inactive: IRAK-1-4 Inhibitor I -0.291 | ibrutinib 0.072 | [1] 0.297 | ralimetinib 0.24 | [2] 0.051 | [3] 0 | [4] 0.084 | pinometostat 0.436 | [5] 0.074 | [6] -0.967

RRBP1 (UniProt Q9P2E9)
inactive: IRAK-1-4 Inhibitor I -0.094 | ibrutinib 0.034 | [1] 0.188 | ralimetinib 0.226 | [2] 0.191 | [3] -0.064 | [4] 0.212 | pinometostat 0.388 | [5] 0.079 | [6] -0.519

RPS6KC1 (UniProt Q96S38)
inactive: IRAK-1-4 Inhibitor I 0.073 | ibrutinib -0.015 | [1] -0.01 | ralimetinib 0.009 | [2] -0.039 | [3] -0.149 | [4] -0.057 | pinometostat -0.079 | [5] -0.212 | [6] 0.022

RPAP3 (UniProt Q9H6T3)
inactive: IRAK-1-4 Inhibitor I -0.065 | ibrutinib -0.019 | [1] -0.021 | ralimetinib 0.029 | [2] -0.035 | [3] -0.045 | [4] 0.081 | pinometostat 0.041 | [5] -0.041 | [6] 0.033

RPL10A (UniProt P62906)
inactive: IRAK-1-4 Inhibitor I -0.217 | ibrutinib 0.051 | [1] 0.262 | ralimetinib 0.239 | [2] 0.067 | [3] -0.007 | [4] 0.206 | pinometostat 0.628 | [5] 0.094 | [6] -1.16

RPP38 (UniProt P78345)
inactive: IRAK-1-4 Inhibitor I -0.065 | ibrutinib -0.013 | [1] 0.014 | ralimetinib 0.003 | [2] -0.047 | [3] 0.013 | [4] 0.006 | pinometostat 0.011 | [5] -0.013 | [6] -0.064
